SMILES strings stand for the structures. The list shows a part of the results. Repeats are few or missing, and single values can be far off.

Drawing on the supplement of paper PMC8007513, this text covers growth for 39 compounds.

The test system of this assay is Saccharomyces cerevisiae BY4743. Put plainly: growth (OD600) relative to untreated control; higher = less growth inhibition. The conditions noted are these: compound concentration: 133 uM; 20 h. As to the method: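 NMCCC compounds (133 uM, no IPBC) tested alone against Saccharomyces cerevisiae BY4743 in YPD, 96-well plates, starting OD600 ~0.1. Growth was read as OD600 at 20 h and expressed as % of the untreated control. Single pass.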
Compound `Cc1nnc(SC(C)C(=O)c2c[nH]c3ccccc23)s1` (centres undefined) returned a growth of 101%.
To `Cc1cc(C)nc(SCc2nnc(SCC(N)=O)n2-c2ccc(Cl)cc2)n1` belongs 98.9%; to `CCOC(=O)N1CCN(c2ccc(S(N)(=O)=O)cn2)CC1`, 102%; to `CC(=O)C1=C(C)OC(=C1)CCC(=O)OCC/2=C/C(=O)N/3\C=C(Cl)/C=C\C3=N2`, 106%.
Regarding `Cc1noc(C)c1CCC(=O)N1CCN(CC2CCCO2)CC1` (centres undefined), the growth was 98.3%.
In the case of `O=S(=O)(NCc1ccccc1Cn1cccn1)c1ccccc1C(F)(F)F` it was 106%.
In the case of `CCCc1cc(O)nc(SCC(=O)N2CCc3sccc3C2)n1` it was 110%; in that of `O=C(CSCc1ccccc1)Nc1nnc(Cc2ccc(Cl)cc2)s1`, 97.3%.
To `COc1cc(CC(=O)Nc2nc(CN3CC(C)OC(C)C3)cs2)cc(OC)c1OC` (centres undefined) belongs 110%; to `COc1ccc(-c2nc(C(=O)OCC(=O)Nc3sccc3C(N)=O)cs2)cc1OC`, 117%.
The compound `COc1ccc(-c2nnc(SCC(=O)NC(C)(C#N)C(C)C)o2)cc1` (centres undefined) showed a growth of 105%.
Compound `COc1cc(C(=O)OCC(=O)N(C)CC2COc3ccccc3O2)ccc1OC(C)C` (centres undefined) came in with a growth of 101%.
In the case of `Cc1ccc(S(=O)(=O)CCc2nc(S(=O)(=O)c3ccc(C)cc3)c(N(C)C)o2)cc1` it was 101%; in that of `Cc1cc(C(F)(F)F)c2c(C#N)cn(-c3cnn(C)c3)c2n1`, 94.2%.
In the case of `CCOC(=O)Cc1c(O)nc2ccc(C)cc2c1-c1ccccc1` it was 109%.
To `CCOC(=O)c1c(-c2ccc(Cl)cc2)nn2c1NCN(CCOC)C2` belongs 109%.
The compound `CCOC(=O)c1c(C)[nH]c(C(=O)OCC(=O)N2CCSC2c2ccccc2F)c1C` (centres undefined) returned a growth of 105%.
To `CCCc1cc(O)nc(SCC(=O)Nc2c(C)nn(-c3ccccc3)c2C)n1` belongs 102%; to `Cc1cc(Cl)ccc1Nc1nc(N)c(C(=O)C(C)C)s1`, 8.5%.
In the case of `CCN1CCC(N(Cc2cccs2)C(=O)Nc2cccc(C)c2C)CC1` it was 103%; in that of `CCN1CCN(S(=O)(=O)c2ccc3c(c2)NC(=O)C(C)CS3)CC1` (centres undefined), 90.7%; in that of `COC(=O)CSc1nc(-c2ccc(F)cc2)cc(C(F)(F)F)n1`, 85.7%.
To `COc1cc(Br)c(CC(=O)OCC(=O)N2CCNC2=O)cc1OC` belongs 103%; to `CN(CCOC1=CC=C(F)C=C1)CC/2=C/C(=O)N/3\C=C/C=C\C3=N2`, 101%; to `CC(C)CC(=O)NC(C)C(c1cccs1)N1CCN(c2ccccc2)CC1` (centres undefined), 106%.
For `N#Cc1cccnc1NCc1ccc(Cn2cncn2)cc1`, the growth was 106%.
To `O=C(CCNC(=O)NCc1ccccc1)NC(c1ccccc1)c1cccs1` (centres undefined) belongs 94.5%; to `CNC(=O)C(c1ccc(Cl)cc1)N(C)Cc1cc2c(cc1Br)OCCO2` (centres undefined), 93.3%.
To `COc1ccc(N(CC(=O)NCC2CCCO2)S(=O)(=O)c2c(C)noc2C)cc1` (centres undefined) belongs 105%.
`Cc1cc(Br)cc(C)c1OCC(=O)Nc1sc2c(c1C(N)=O)CCCC2` came in with a growth of 96%.
For the compound `COC(=O)c1sccc1NS(=O)(=O)c1ccc(Cl)s1`, the growth amounted to 99.9%.
In the case of `CN1C(=O)\C=C(\CNC(=O)CCNC(=O)C2=CC(=NC3=CC=CC=C23)O)N(C)C1=O` it was 99.6%.
Compound `Cc1ccc(NC(=O)C(CC(C)C)NS(=O)(=O)c2ccc3c(c2)oc(=O)n3C)c(C)c1` (centres undefined) yielded a growth of 95.8%.
To `CCN(CC(=O)NC1=CC=C(NC(C)=O)C=C1)C(=O)C/2=N/N(C)C(=O)/C=C2` belongs 108%.
In the case of `CS(=O)(=O)c1ccc(-c2cccc(NC(=O)C3CCCO3)c2)nn1` (centres undefined) it was 99.2%; in that of `CC1=CC=C(C)C(=C1)[S](=O)(=O)N(CC2=CC=CC=C2)C\3C[S](=O)(=O)\C=C3` (centres undefined), 99%.
To `CC(C)(C)c1ccc2oc(=O)n(C(=O)COc3ccc(F)cc3)c2c1` belongs 103%; to `COc1cc(NC(=O)c2ccc3c(c2)NC(=O)CS3)cc(OC)c1OC`, 107%.
Consider `CCOc1ccc(Oc2ccc(NC(=O)c3cc(S(=O)(=O)NC(C)C)cn3C)cc2)cc1`, for which the growth worked out at 93%.
